Measurements from article PMC11069428.

Experiments:
[1] = test system: GST-MabHLH28 (banana (Musa)); assay: EMSA; settings: Chemiluminescent EMSA kit (Thermo) per manufacturer, pH and temperature not stated, recombinant protein, protein details: GST (N-terminal, pGEX-4T-1), label: 3' biotin
[2] = test system: GST-MabHLH28 (banana (Musa)); assay: competition with a labelled probe; settings: unlabelled mutant 200x/1000x; Chemiluminescent EMSA kit (Thermo) per manufacturer; pH and temperature not stated; recombinant protein; protein details: GST (N-terminal, pGEX-4T-1); label: 3' biotin, unlabelled as competitor
[3] = test system: GST-MaWRKY49C (banana (Musa)); assay: EMSA; settings: Chemiluminescent EMSA kit (Thermo) per manufacturer; pH and temperature not stated; recombinant protein; protein details: GST (N-terminal, pGEX-4T-1); label: 3' biotin
[4] = test system: GST-MaWRKY111 (banana (Musa)); assay: EMSA; settings: Chemiluminescent EMSA kit (Thermo) per manufacturer; pH and temperature not stated; recombinant protein; protein details: GST (N-terminal, pGEX-4T-1); label: 3' biotin

| Sequence | binding result ([1]; unlabelled as competitor) | binding result [2] | binding result [1] | other results |
| --- | --- | --- | --- | --- |
| AAGTCTCACCTCTCACGCCAAAAAAAAAAAACAAGTCATCTCCCTTTCTG (double strand) [MaEXP2 mprobe] | binds more weakly | no binding |  |  |
| AAGTCTCACCTCTCACGCCACGCACGAGTCACAAGTCATCTCCCTTTCTG (double strand) [MaEXP2 probe] |  |  | binds |  |
| ACCTATGAGAATAGCCTTAAAAAGTCAATGTGAGCTTTAGAACCAACGT / TACGTTGGTTCTAAAGCTCACATTGACTTTTTAAGGCTATTCTCATAGGT [MaEXPA2 W-box probe] |  |  |  | binding result [3]: binds; binding result [4]: binds |
| CATACACATACACGTTTGAAGCGGTCAAAGCTGCAAATTCTCGTTTCTCTT (double strand) [MaPE1 W-box probe] |  |  |  | binding result [3]: binds; binding result [4]: binds |
| CATGTTCATGCCTCTGATGTTTTTGACTGACAGCTGTGTTGCTTGACATC (double strand) [MaPG3 W-box probe] |  |  |  | binding result [3]: binds; binding result [4]: binds |
| CGCAGGTCTTATAGTTGCGTGAAGTCAACGTAGACTAAACGCCCAACACA (double strand) [MaEXP2 W-box probe] |  |  |  | binding result [3]: binds; binding result [4]: binds |
| CTGCCGCGAGAGAGTCAAAGACGGTGGGTAAGTTTGACCCATCCTTTCCG (double strand) [MaEXP1 W-box probe] |  |  |  | binding result [3]: binds; binding result [4]: binds |
| CTTGAGGGCATGGTGGTTTGGTAGTCAAATCTACTAAAAGATGAACGGAG (double strand) [MaPL5 W-box probe] |  |  |  | binding result [3]: binds; binding result [4]: binds |
| GAATATGCTTGCCGCTTTCATGTGATCAATTGAATTGTTTGCTTGCTTCA (double strand) [MaACO1 probe] |  |  | binds |  |
| GACCTCCGTCAGACTCCTTTAACATATGTTAAACAACTTGAATCTAATTT (double strand) [MaACS1 probe] |  |  | binds |  |
| GAGGATTTGGAAAAAAAAAACATGTTGCAAAAAAAAAAAAACCTACTGCT (double strand) [MaPL8 mprobe] | binds more weakly | no binding |  |  |
| GAGGATTTGGCGCACGAGGTCATGTTGCATGCATGTGCAAACCTACTGCT (double strand) [MaPL8 probe] |  |  | binds |  |
| GCTCTGCGGCCGAAAGCCATAAAAAAAAAAGTGCAGTGCCGTGAACACCC (double strand) [MaPL5 mprobe] | binds more weakly | no binding |  |  |
| GCTCTGCGGCCGAAAGCCATCCCATGTGCTGTGCAGTGCCGTGAACACCC (double strand) [MaPL5 probe] |  |  | binds |  |
| GCTGGATGGAGCCTTTTTCCTTGGTCAATTATACGAATGAATGAATGGCT (double strand) [MaLSF2 W-box probe] |  |  |  | binding result [3]: binds; binding result [4]: binds |
| GCTTTTGTTACCGCAAAAAAAAAATTAAAAAAAAAAGTGGGTCGACGCAT (double strand) [MaEXPA15 mprobe] | binds more weakly | no binding |  |  |

| Sequence | binding result ([1]; unlabelled as competitor) | binding result [2] | binding result [1] | other results |
| --- | --- | --- | --- | --- |
| GCTTTTGTTACCGCGGCATGTGGCTTCCCATGTGCGGTGGGTCGACGCAT (double strand) [MaEXPA15 probe] |  |  | binds |  |
| GGCAGCCCGGAATAAAAAAAAAACCTCAAAAAAAAAAGGGACAGTCCGTA (double strand) [MaEXP1 mprobe] | binds more weakly | no binding |  |  |
| GGCAGCCCGGAATAGCATGTGCTCCTCCTCACATGGTGGGACAGTCCGTA (double strand) [MaEXP1 probe] |  |  | binds |  |
| TAAAAAAAAAAGGTTAAGCCCGAAATATTAGAACTCGACAAAAAAAAAAC (double strand) [MaLSF2 mprobe] | binds more weakly | no binding |  |  |
| TAACTTAGGACAGTAACATGAAAAAAAAAAATTGGTAGTACTTGTGTACC (double strand) [MaPG3 mprobe] | binds more weakly | no binding |  |  |
| TAACTTAGGACAGTAACATGGCCATGTGATATTGGTAGTACTTGTGTACC (double strand) [MaPG3 probe] |  |  | binds |  |
| TATCACGTGCGGGTTAAGCCCGAAATATTAGAACTCGACGACATGTGCTC (double strand) [MaLSF2 probe] |  |  | binds |  |
| TCAGCGAAAAAAAAAATGCGTCGTTTGTCATGAAAAAAAAAAAATGTATA (double strand) [MaPE1 mprobe] | binds more weakly | no binding |  |  |
| TCAGCGTTCACATGCATGCGTCGTTTGTCATGAAACCACGTGGATGTATA (double strand) [MaPE1 probe] |  |  | binds |  |
| TGGCAATTTGGAAGTGCTGAAAAAAAAAAACATTATTAGACTCATTGTTT (double strand) [MaEXPA2 mprobe] | binds more weakly | no binding |  |  |
| TGGCAATTTGGAAGTGCTGACACACGTGTTCATTATTAGACTCATTGTTT (double strand) [MaEXPA2 probe] |  |  | binds |  |
| TTCTCTTCCACTACCAGCACAAAAAAAAAAAAATCCGGTTCACTCCGCCC (double strand) [MaGWD1 mprobe] | binds more weakly | no binding |  |  |
| TTCTCTTCCACTACCAGCACACCACGTGGTAAATCCGGTTCACTCCGCCC (double strand) [MaGWD1 probe] |  |  | binds |  |
| TTCTGACTCTAATTAACGAGTCCTTAATGTTGTGGACTTATAAGTCAAAC (double strand) [MaPL8 W-box probe] |  |  |  | binding result [3]: binds; binding result [4]: binds |
| TTTCTTGACTCAACTGCAGGCAGTCAAAACGAAGAACTTTGGTCAGTAAG (double strand) [MaEXPA15 W-box probe] |  |  |  | binding result [3]: binds; binding result [4]: binds |

For at least one entry, the source does not settle the construct or the ends of the probe. For some assays here: A negative result means that nothing was seen under these conditions. For some assays here: At least one verdict rests on a figure or table, not on a statement of the authors. For some assays here: A weaker result is weaker than the reference pair of the same experiment.
